Data reported in PubChem BioAssay AID1347075 (National Center for Advancing Translational Sciences (NCATS), 2019).
In all, about 400,000 compounds went through this assay and about 5,500 (1.4%) were called active. This list was built around the results that the source calls inconclusive (neither active nor inactive); the mix of calls is not that of the screen. Calls come from the whole dose curve; as a rule, active = well fitted cell-killing curve with a large enough effect; inconclusive = small, poorly fitted or top-dose-only effect, or effect the other way; inactive = flat fitted curve, though single readings scatter. Potencies beside an inconclusive call are fits to weak or partial responses and may not hold up.

test: qHTS assay for MDR1-selective chemotherapeutics: Primary screen using the parental adenocarcinoma cell KB-3-1; settings: KB-3-1 viability, CellTiter-Glo ATP luminescence, 72 h; activity change, negative = cytotoxic: at 46.1 µM (top of the series); note: nearly all actives have a fitted effect of over 60% in size
How it was run: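 Parental KB-3-1 adenocarcinoma cells in phenol-red-free DMEM with 10% FBS were pin-treated with compounds at several concentrations, incubated 72 h at 37 °C, and viability read by CellTiter-Glo luminescence; concentration-effect curves were fitted after normalization.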
% is set by controls: 0 for no effect and ±100 for the full control effect; potency is the fitted concentration of half-maximal effect.

Structure (SMILES)	Potency	activity change, negative = cytotoxic
CCc1ccc(C2=NN(C(C)=O)C(c3ccco3)C2)cc1 (centres undefined)	inconclusive: 20.6 µM [cytotoxic, single point]	
O=C(Nc1ccc(S(=O)(=O)N2CCOCC2)cc1)C1CCN(S(=O)(=O)c2ccc(Cl)cc2)CC1	inconclusive: 20.6 µM [cytotoxic, single point]	
OC(c1ccc(F)c(F)c1)c1ncc(-c2ccc(Cl)cc2)[nH]1 (centres undefined)		inconclusive: 0%
COC(=O)CCCCCCCC(=O)Nc1nnc(C(F)(F)F)s1	inactive	
CCOC(=O)N1CCC(NC(=O)C2CCN(C(=O)c3cc4oc(C)cc4n3Cc3c(F)cccc3Cl)CC2)CC1	inconclusive: 29.1 µM [cytotoxic, single point]	
O=C(NNC(=O)c1cccnc1SCc1cccc([N+](=O)[O-])c1)c1ccc(F)cc1	inconclusive: 29.1 µM [cytotoxic, single point]	
O=C(C[C@H]1CC[C@H](NC(=O)C2CCOCC2)[C@@H](CO)O1)NCc1ccncc1	inactive	
CC(=O)COc1ccc2c(-c3ccccc3)cc(=O)oc2c1C	inconclusive: 2.91 µM [cytotoxic, partial curve, poor fit]	
O=C(CNS(=O)(=O)c1ccc(Br)cc1)N1CCN(c2ccc(F)cc2)CC1	inconclusive: 23.1 µM [cytotoxic, single point]	
CCc1ccc(CNCc2c(C(=O)O)n(Cc3ccc(C)cc3)c3cc(C)ccc23)cc1	active: 18.4 µM	
Cc1csc(Nc2ccccc2)[n+]1C	inconclusive: 3.26 µM [rising, partial curve, poor fit]	
Cc1[nH]n(-c2ccccc2)c(=O)c1C(=O)c1ccccc1	inconclusive: 32.6 µM [cytotoxic, single point]	
CCOC(=O)N1CCN(C(=O)COc2cccc3c2CCN(Cc2ccc(F)cc2)C3=O)CC1	inconclusive: 20.6 µM [cytotoxic, single point]	
COc1cccc(OCCSc2nc(N)cc(N)n2)c1	inconclusive: 18.4 µM [cytotoxic, single point]	
CC(=O)Nc1cccc(-c2ccnc3c2CC(C)(C(=O)NCc2ccccc2)O3)c1 (centres undefined)	active: 2.91 µM	
Cc1nc(C)c(/C(O)=C/c2nc3ccccc3oc2=O)s1	inconclusive: 20.6 µM [cytotoxic, single point]	
CCCN1CCN(c2ncnc3sc(C(=O)Nc4c(C)cc(C)cc4C)c(C)c23)CC1	active: 20.6 µM	
COc1ccc(S(=O)(=O)Nc2cccc(-c3ccc4nncn4n3)c2)cc1	active: 5.8 µM	
COc1ccc2nc(/N=C/c3c(C)[nH]n(-c4ccc(C)cc4)c3=O)sc2c1	inconclusive: 6.51 µM [cytotoxic, full curve, poor fit]	
Cc1ccc(C2C=C(c3ccccc3OC(F)F)Nc3ncnn32)cc1 (centres undefined)	inconclusive: 29.1 µM [cytotoxic, single point]	
CCCCCc1nc2c(c3c1CCCC3)CCCC2	inconclusive: 29.1 µM [cytotoxic, single point]	
Clc1ccc(CN2C3=NCCCN3c3ccccc32)cc1Cl	inconclusive: 23.1 µM [cytotoxic, partial curve, poor fit]	

Structure (SMILES)	Potency	activity change, negative = cytotoxic
O=C(Cc1c(Sc2ccccc2)c2ccccc2n1Cc1ccccc1)NCCO	inactive	
N#Cc1ccsc1NC(=O)CSc1ncnc2ccccc12	inconclusive: 25.9 µM [cytotoxic, single point]	
O=C(c1ccc2c(c1)OCCO2)C1CCN(C(=O)c2ccc(F)c(F)c2)CC1	inconclusive: 20.6 µM [cytotoxic, single point]	
Cc1c(NC(=O)CSc2ccc(Cl)cc2)c(=O)n(-c2ccccc2)n1C		inconclusive: 7.17%
CCOc1ccc(N(CC(=O)NCc2ccccc2Cl)S(=O)(=O)c2c(C)noc2C)cc1	inactive	
Cc1ccccc1P(=O)(c1ccccc1)c1ccccc1C	inactive	
COC(=O)CSC1=C(C#N)C(c2ccccc2)CC(=O)N1 (centres undefined)	inconclusive: 29.1 µM [cytotoxic, single point]	
NC(=O)COc1ccc(Nc2nnc(-c3ccc(O)cc3)c3ccccc23)cc1	inactive	
CCOc1ccccc1NC(=O)Nc1ccc(Cl)cc1	active: 23.1 µM	
CCN=c1sc(C(=O)NCCc2ccccc2)cc(=O)n1CC	inconclusive: 29.1 µM [cytotoxic, single point]	
CN1c2ccccc2Sc2cc(N)ccc21	inconclusive: 16.4 µM [cytotoxic, single point]	
CCC(=O)N1Cc2cc(C(=O)NCc3cccc(F)c3)nc(-c3cccc(C4=CCCC4)c3)c2[C@H]1CCO	inconclusive: 16.4 µM [cytotoxic, single point]	
O=C(Nc1ncc(Cc2ccccc2)s1)C1COc2ccccc2O1 (centres undefined)	inconclusive: 20.6 µM [cytotoxic, single point]	
Cc1ccc(-n2c(CCc3ccccc3)nnc2SCC(=O)NCc2ccccc2)cc1C	inconclusive: 18.4 µM [cytotoxic, single point]	
CCCCOC(=O)Nc1nc2ccccc2s1	inconclusive: 18.4 µM [rising, partial curve, poor fit]	
COc1ccc(-c2[nH]c(-c3ccc(F)cc3)nc2SCC(=O)NC2CCCC2)cc1	inconclusive: 32.6 µM [cytotoxic, single point]	
CC(C)Cn1c(N)c(C(=O)COC(=O)c2ccncc2)c(=O)n(C)c1=O	inactive	
Cc1ccc(NC(=O)CN(C)C(=O)CNC(=O)c2sc3ccccc3c2Cl)cc1	inconclusive: 0.651 µM [rising, full curve, poor fit]	
COc1cccc(-c2nc(-c3ccccc3)nc(N3CCN(C)CC3)c2C#N)c1	inconclusive: 32.6 µM [cytotoxic, single point]	
Cc1ccc2[nH]c(C(=O)N3CCCC(Nc4ccc(F)cc4)C3)cc2c1 (centres undefined)	inconclusive: 8.2 µM [cytotoxic, partial curve, poor fit]	
CCN1CCN(c2ccc(S(=O)(=O)N3CCCCC3)cc2NC(=O)Cc2c(F)cccc2Cl)CC1	inactive	
COc1ccc(CCN2C(=O)c3[nH]nc(-c4ccccc4O)c3C2c2cccc(Cl)c2)cc1 (centres undefined)	active: 18.4 µM	

Copied from the entries so far, 2 compounds:
Structure (SMILES)	Potency	activity change, negative = cytotoxic
CN1c2ccccc2Sc2cc(N)ccc21	inconclusive: 16.4 µM [cytotoxic, single point]	
CCC(=O)N1Cc2cc(C(=O)NCc3cccc(F)c3)nc(-c3cccc(C4=CCCC4)c3)c2[C@H]1CCO	inconclusive: 16.4 µM [cytotoxic, single point]	
